Assay results as given in the supplement of paper PMC6411743.
± gives the standard deviation of the averaged measurements. Some of the results follow.

Chains of the proteins cited; added tags and fusions are not shown. Lines headed by an entry give the natural chain unless they say otherwise; changes in a name come on top.
UniProt O15084: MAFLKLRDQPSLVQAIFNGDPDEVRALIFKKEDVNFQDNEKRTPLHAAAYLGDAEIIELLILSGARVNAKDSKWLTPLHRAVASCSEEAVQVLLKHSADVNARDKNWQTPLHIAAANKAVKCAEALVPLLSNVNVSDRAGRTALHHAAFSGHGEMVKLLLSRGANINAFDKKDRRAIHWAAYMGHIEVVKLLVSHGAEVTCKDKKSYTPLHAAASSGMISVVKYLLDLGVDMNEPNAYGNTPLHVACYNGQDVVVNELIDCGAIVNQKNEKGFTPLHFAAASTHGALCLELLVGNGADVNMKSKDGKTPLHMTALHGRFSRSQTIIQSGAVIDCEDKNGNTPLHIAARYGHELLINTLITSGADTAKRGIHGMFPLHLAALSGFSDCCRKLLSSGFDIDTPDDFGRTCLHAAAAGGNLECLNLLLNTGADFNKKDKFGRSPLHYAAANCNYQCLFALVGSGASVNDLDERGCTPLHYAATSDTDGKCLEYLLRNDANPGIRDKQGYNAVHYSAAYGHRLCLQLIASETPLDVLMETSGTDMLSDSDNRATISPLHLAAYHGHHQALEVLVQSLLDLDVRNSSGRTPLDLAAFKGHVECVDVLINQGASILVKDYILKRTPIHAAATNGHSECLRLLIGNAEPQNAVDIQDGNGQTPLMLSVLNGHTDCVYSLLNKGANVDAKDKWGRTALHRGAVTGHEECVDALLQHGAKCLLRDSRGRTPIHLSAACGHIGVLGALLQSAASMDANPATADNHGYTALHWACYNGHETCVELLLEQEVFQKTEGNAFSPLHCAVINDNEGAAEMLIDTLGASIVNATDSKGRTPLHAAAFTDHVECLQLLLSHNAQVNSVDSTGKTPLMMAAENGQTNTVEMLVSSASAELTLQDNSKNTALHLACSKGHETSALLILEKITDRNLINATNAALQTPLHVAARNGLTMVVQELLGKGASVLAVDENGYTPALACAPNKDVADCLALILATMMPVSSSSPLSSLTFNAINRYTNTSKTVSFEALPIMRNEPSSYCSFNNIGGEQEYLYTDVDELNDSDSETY
UniProt O60307: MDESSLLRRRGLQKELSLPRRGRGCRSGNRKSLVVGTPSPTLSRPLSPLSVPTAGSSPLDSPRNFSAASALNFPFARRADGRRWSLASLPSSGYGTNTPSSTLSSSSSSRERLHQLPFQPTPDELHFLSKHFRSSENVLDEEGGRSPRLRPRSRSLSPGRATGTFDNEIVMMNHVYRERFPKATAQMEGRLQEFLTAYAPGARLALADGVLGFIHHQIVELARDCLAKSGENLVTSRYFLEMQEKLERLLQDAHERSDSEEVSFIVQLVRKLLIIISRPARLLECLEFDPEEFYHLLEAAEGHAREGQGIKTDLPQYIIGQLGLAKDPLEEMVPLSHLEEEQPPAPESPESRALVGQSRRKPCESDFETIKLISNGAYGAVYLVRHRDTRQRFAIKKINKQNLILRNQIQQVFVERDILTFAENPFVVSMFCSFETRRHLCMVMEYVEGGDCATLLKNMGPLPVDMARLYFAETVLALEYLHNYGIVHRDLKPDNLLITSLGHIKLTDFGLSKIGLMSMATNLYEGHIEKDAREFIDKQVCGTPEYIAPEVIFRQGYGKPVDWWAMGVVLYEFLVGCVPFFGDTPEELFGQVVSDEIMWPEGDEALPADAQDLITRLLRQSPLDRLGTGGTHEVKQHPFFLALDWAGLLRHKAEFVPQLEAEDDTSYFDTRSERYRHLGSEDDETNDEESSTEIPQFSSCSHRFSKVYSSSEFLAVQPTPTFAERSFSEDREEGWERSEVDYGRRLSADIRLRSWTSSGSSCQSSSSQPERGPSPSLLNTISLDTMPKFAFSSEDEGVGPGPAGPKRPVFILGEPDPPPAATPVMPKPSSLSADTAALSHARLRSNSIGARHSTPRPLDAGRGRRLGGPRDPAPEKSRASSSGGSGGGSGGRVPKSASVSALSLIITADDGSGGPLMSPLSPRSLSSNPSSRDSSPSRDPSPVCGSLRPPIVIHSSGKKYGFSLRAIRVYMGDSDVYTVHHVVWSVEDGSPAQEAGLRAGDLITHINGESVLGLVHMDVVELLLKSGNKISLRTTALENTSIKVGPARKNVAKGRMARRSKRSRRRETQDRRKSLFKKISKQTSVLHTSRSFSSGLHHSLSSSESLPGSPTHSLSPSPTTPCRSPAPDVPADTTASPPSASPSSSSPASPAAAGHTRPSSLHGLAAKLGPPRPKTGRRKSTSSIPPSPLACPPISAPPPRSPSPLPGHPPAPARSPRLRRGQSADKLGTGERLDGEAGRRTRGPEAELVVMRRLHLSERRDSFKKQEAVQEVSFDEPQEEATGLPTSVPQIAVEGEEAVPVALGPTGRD
UniProt O60831: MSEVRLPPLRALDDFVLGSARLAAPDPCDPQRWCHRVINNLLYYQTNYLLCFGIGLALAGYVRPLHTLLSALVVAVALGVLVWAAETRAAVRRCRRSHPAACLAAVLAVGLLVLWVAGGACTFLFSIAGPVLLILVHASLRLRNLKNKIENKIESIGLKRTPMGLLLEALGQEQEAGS
UniProt Q9NWS0, whole entry: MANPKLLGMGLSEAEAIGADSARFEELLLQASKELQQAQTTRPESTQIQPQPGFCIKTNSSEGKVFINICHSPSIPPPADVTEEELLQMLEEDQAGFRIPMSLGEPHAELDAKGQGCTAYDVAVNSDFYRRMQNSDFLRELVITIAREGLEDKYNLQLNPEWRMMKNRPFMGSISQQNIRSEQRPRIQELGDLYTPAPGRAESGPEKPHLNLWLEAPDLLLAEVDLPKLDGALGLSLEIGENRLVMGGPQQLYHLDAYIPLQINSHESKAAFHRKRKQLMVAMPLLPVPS

Compound: Nc1nc2c(ncn2[C@@H]2O[C@H](COP(=O)(O)OP(=O)(O)OP(=O)(O)O)[C@@H](O)[C@H]2O)c(=O)[nH]1 [guanosine triphosphate]
Experiment: NP40-soluble protein abundance relative to vehicle (solubility fold change) (ratio); higher = more soluble protein in presence of GTP
Description: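 Solubility proteome profiling in Jurkat crude lysate. Lysate was treated with Mg-GTP (0.1-10 mM) for 10 min at room temperature and 3 min at 37 °C, then solubilised with 0.8% NP40 and benzonase, followed by ultracentrifugation. Proteins were quantified by TMT10 LC-MS/MS; the value is the NP40-soluble abundance relative to the NP40-processed vehicle, from 3 independent experiments.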

ANKRD28 (UniProt O15084)
NP40-soluble protein abundance (concentration: 0.1mM): 1.06 ± 0.073 | NP40-soluble protein abundance (concentration: 0.5mM): 1.08 ± 0.09 | NP40-soluble protein abundance (concentration: 1mM): 1.09 ± 0.099 | NP40-soluble protein abundance (concentration: 2mM): 1.13 ± 0.13 | NP40-soluble protein abundance (concentration: 4mM): 1.14 ± 0.16 | NP40-soluble protein abundance (concentration: 6mM): 1.12 ± 0.16 | NP40-soluble protein abundance (concentration: 8mM): 1.08 ± 0.16 | NP40-soluble protein abundance (concentration: 10mM): 1.05 ± 0.13

MAST3 (UniProt O60307)
NP40-soluble protein abundance (concentration: 0.1mM): 1.241 ± 0.0039 | NP40-soluble protein abundance (concentration: 0.5mM): 1.43 ± 0.14 | NP40-soluble protein abundance (concentration: 1mM): 1.46 ± 0.03 | NP40-soluble protein abundance (concentration: 2mM): 1.522 ± 0.011 | NP40-soluble protein abundance (concentration: 4mM): 1.4506 ± 0.0012 | NP40-soluble protein abundance (concentration: 6mM): 1.35 ± 0.096 | NP40-soluble protein abundance (concentration: 8mM): 1.46 ± 0.1 | NP40-soluble protein abundance (concentration: 10mM): 1.49 ± 0.073

PRAF2 (UniProt O60831)
NP40-soluble protein abundance (concentration: 0.1mM): 0.97 ± 0.017 | NP40-soluble protein abundance (concentration: 0.5mM): 0.952 ± 0.055 | NP40-soluble protein abundance (concentration: 1mM): 0.87 ± 0.048 | NP40-soluble protein abundance (concentration: 2mM): 0.881 ± 0.035 | NP40-soluble protein abundance (concentration: 4mM): 0.889 ± 0.047 | NP40-soluble protein abundance (concentration: 6mM): 0.864 ± 0.042 | NP40-soluble protein abundance (concentration: 8mM): 0.845 ± 0.14 | NP40-soluble protein abundance (concentration: 10mM): 0.87 ± 0.093

UniProt O00182 and related entries
NP40-soluble protein abundance (concentration: 0.1mM): 1.04 ± 0.04 | NP40-soluble protein abundance (concentration: 0.5mM): 1.05 ± 0.022 | NP40-soluble protein abundance (concentration: 1mM): 0.98 ± 0.011 | NP40-soluble protein abundance (concentration: 2mM): 0.987 ± 0.05 | NP40-soluble protein abundance (concentration: 4mM): 0.996 ± 0.058 | NP40-soluble protein abundance (concentration: 6mM): 0.997 ± 0.039 | NP40-soluble protein abundance (concentration: 8mM): 0.9929 ± 0.0081 | NP40-soluble protein abundance (concentration: 10mM): 0.9652 ± 0.0046

M0QYA2 and related entries (UniProt Q9NWS0)
NP40-soluble protein abundance (concentration: 0.1mM): 0.987 ± 0.018 | NP40-soluble protein abundance (concentration: 0.5mM): 0.966 ± 0.029 | NP40-soluble protein abundance (concentration: 1mM): 0.979 ± 0.041 | NP40-soluble protein abundance (concentration: 2mM): 1.06 ± 0.037 | NP40-soluble protein abundance (concentration: 4mM): 1.07 ± 0.092 | NP40-soluble protein abundance (concentration: 6mM): 1.02 ± 0.057 | NP40-soluble protein abundance (concentration: 8mM): 1.01 ± 0.061 | NP40-soluble protein abundance (concentration: 10mM): 1.06 ± 0.051
